Source: patent US11447533B2, “Antimicrobial and anticancer peptides and conjugates and compositions, methods, articles and kits relating thereto” (George Mason Research Foundation, Inc., priority 2018, dated 2022)
Some of these results come from one statement about several compounds together.

Legend:
[1] = test system: E. coli ML35p outer membrane; assay: Outer membrane disruption (β-lactamase leakage, nitrocefin); format: cell-based, Escherichia coli; conditions: for outer membrane disruption relative to HCMAB: 10 mM phosphate buffer, HCMAB = 100%; for time to reach maximum signal for nitrocefin hydrolysis: DPBS
Description: Interactions with Bacterial Membranes. Interaction of the peptides with bacterial membranes in different phosphate buffers were evaluated using E. coli ML35p, constructed in our laboratory. At first, competent cells of E. coli ML35 were produced by conventional competent cell preparation method, then transformed with pBR322 plasmid. Transformed colonies were selected after growing on Luria-agar containing 50 μg/mL ampicillin. A single transformed colony was grown in presence of ampicillin first in Luria broth and then in MHBII and stored as 20% glycerol stock at −80° C. This frozen stock, on the day of the experiment, was thawed and grown in MHBII containing ampicillin up to OD600 nm=0.8-0.9, washed with PBS and then suspended in the respective buffer up to the required OD600 nm for use.
Membrane Disruptions. The outer and the inner membrane disruptions by the peptides were evaluated by incubating bacterial suspension with peptides and then measuring the activity of enzymes leaked out of the cells. 100 μL of 10× concentration of peptide in water was incubated with 900 μL bacterial suspension (OD600 nm˜0.1) in respective buffer for 3 hours at room temperature with gentle rotation. Then the cells and debris were separated by centrifugation (10000 r.p.m. for 30 mins) and the supernatant was collected and tested for activity of enzymes that had leaked out of the bacterial cells. […]
The outer membrane disruption was tested by using the activity of beta-lactamase present in the periplasmic space of E. coli ML35p. Peptides when disrupt the outer membrane enough to cause beta-lactamase to come out, the degree of disruption can be measured by the virtue of the kinetics of the enzyme and using a chromogenic cephalosporin substrate called nitrocefin. β-lactamase mediated hydrolyzed product of nitrocefin has an absorbance αmax=486 nm. Supernatant collected from the incubation of peptide with bacteria was added with nitrocefin solution in DPBS and incubated at 35° C. and continuous absorbance readings. The slope of the linear section of the absorbance curve (absorbance vs time), was used as a measure of membrane disruption and the % Disruption was calculated as: Equation 7: […]
Some of the ATRA1-variants were further tested for their ability to disrupt outer and inner membranes to form pores or disruptions sufficiently large so as to allow enzymes to leak out of their cellular compartments (cytoplasm or periplasmic space). […] When the aforesaid supernatants were tested for nitrocefin and ONPG hydrolysis, the corresponding absorbance increased with time (data not shown) indicating β-lactamase and β-galactosidase activity, respectively, and thus disruption of both the inner and outer membranes. […]

[2] = test system: primary lung epithelium cells; assay: Cytotoxicity (Alamar blue); format: cell-based, human; conditions: ~16 hours (overnight), reduced serum conditions
Description: FIGS. 11A-11B are graphs showing cytotoxicity against primary lung epithelium cells in serum-free condition. Cells were seeded in complete growth medium (Minimal essential medium supplemented with 10% fetal bovine serum) at near-confluence into a 96-well plate and allowed to settle for 24-hours. Media was then replaced to OptiMEM I reduced serum medium containing peptide or vehicle alone (DBPS) and cells were incubated overnight (16 hours). A resazurin based dye (Alamar blue) was added directly to media and conversion of resazurin to resorufin was evaluated following two hours. % Survival represents the proportion of viable cells in peptide treated cells relative to cells treated with vehicle alone. […] Each peptide was tested in triplicate.
FIG. 12 is a graph showing comparison of toxicities against Lung Primary Epithelial cells and Lung Cancerous Epithelial Cells, derived from H358 cell-line. […] Each peptide was tested in triplicate.
Cytotoxicity. Cells were seeded in complete growth medium (Minimal Essential Medium, MEMα, supplemented with 10% Fetal Bovine Serum) into a culture-treated 96-well plate at a density of 25000 cells per well. After 24 hours, culture media was aspirated and replaced with media containing the selected peptide. […] A ratio of reduction in treated versus untreated cells was calculated in order to determine overall cell viability. […]

| Compound | outer membrane disruption relative to HCMAB [1] | time to reach maximum signal for nitrocefin hydrolysis [1] [min] | concentration decreasing resazurin reduction by 50% (LD50) [2] |
| --- | --- | --- | --- |
| RRWKRFFKRWKGGVIGVTFPF (SEQ ID NO: 50) [ATRA1-R3W2-HYD, ATRA1-R3W2 with hydrophobic tail of NA-CATH joined by -GG-] | 90-110% |  |  |
| CCCCCCCCCCCCCCCC[N+](C)(C)C.[Br-] [HCMAB, Hexadecyltrimethylammonium bromide, reference compound] |  | ≤ 15 |  |
| Polymyxin B [PMB, reference compound] | 90-110% |  | below 10 μM |
| CC[C@H](C)[C@H](NC(=O)CN)C(=O)NCC(=O)N[C@@H](C)C(=O)N[C@H](C(=O)N[C@@H](CC(C)C)C(=O)N[C@@H](CCCCN)C(=O)N[C@H](C(=O)N[C@@H](CC(C)C)C(=O)N[C@H](C(=O)N[C@H](C(=O)NCC(=O)N[C@@H](CC(C)C)C(=O)N1CCC[C@H]1C(=O)N[C@@H](C)C(=O)N[C@@H](CC(C)C)C(=O)N[C@H](C(=O)N[C@@H](CO)C(=O)N[C@@H](Cc1c[nH]c2ccccc12)C(=O)N[C@H](C(=O)N[C@@H](CCCCN)C(=O)N[C@@H](CCCNC(=N)N)C(=O)N[C@@H](CCCCN)C(=O)N[C@@H](CCCNC(=N)N)C(=O)N[C@@H](CCC(N)=O)C(=O)N[C@@H](CCC(N)=O)C(N)=O)[C@@H](C)CC)[C@@H](C)CC)[C@@H](C)O)[C@@H](C)O)C(C)C)C(C)C [melittin, reference compound] |  | ≤ 15 |  |
